Measurements as given in US9040106B2, “Pharmaceutical composition for preventing or treating diabetic erectile dysfunction comprising C3G or extract of mulberry containing C3G” (CATHOLIC UNIVERSITY INDUSTRY-ACADEMIC COOPERATION FOUNDATION, priority 2011, dated 2015).

Experiment: Body weight of streptozotosin-induced diabetic rats
Assay type: in vivo, Sprague-Dawley rats
Details: DM+C3G group
Experimental: Thirty-six 12-wk-old male Sprague-Dawley rats were treated under a protocol approved by the Institutional Animal Care and Use Committee (CUMC-2010-0137-02) and handled according to NIH guidelines. Rats were divided equally into three groups (n=12 in each): control, diabetes (DM), and diabetes with C3G concentration materials treatment (DM+C3G). All rats in the DM and DM+C3G groups received a single intraperitoneal injection of streptozotosin (50 mg/kg). Blood glucose and body weight were monitored weekly and significant diabetes (serum glucose >250 mg/dl) was confirmed in all rats within 1 wk. The diabetic serum level was maintained throughout the experiment. Four weeks after the induction of diabetes, rats in the DM+C3G group were treated with daily oral C3G (10 mg/kg) dissolved in water for 8 weeks. After the 12 weeks, intracavernosal pressure measurement (ICP) was performed, and after ICP measurement, the skin-denuded middle part of the penile shafts was cut and fixed overnight in 10% formalin, washed, and stored in 70% alcohol at 4° C. until processed for paraffin-embedded tissue sectioning (5 μm). […].

OC[C@H]1O[C@@H](Oc2cc3c(O)cc(O)cc3[o+]c2-c2ccc(O)c(O)c2)[C@H](O)[C@@H](O)[C@@H]1O [C3G, Cyanidin-3-O-β-d-glucopyranoside]
Body weight (4 wk after diabetes induction (start of daily oral C3G 10 mg/kg)): 418 ± 78 g | Body weight (8 wk, daily oral C3G 10 mg/kg from week 4): 408 ± 68 g | Body weight (12 wk, daily oral C3G 10 mg/kg for 8 weeks): 441 ± 85 g | Body weight (Pre-DM induction (before C3G treatment)): 441 ± 29 g
